The other results are listed elsewhere or left out.

The target of the test is T1, OsSMF1 (Oryza sativa, UniProt Q6ZLB0 1-436).
T1 sequence: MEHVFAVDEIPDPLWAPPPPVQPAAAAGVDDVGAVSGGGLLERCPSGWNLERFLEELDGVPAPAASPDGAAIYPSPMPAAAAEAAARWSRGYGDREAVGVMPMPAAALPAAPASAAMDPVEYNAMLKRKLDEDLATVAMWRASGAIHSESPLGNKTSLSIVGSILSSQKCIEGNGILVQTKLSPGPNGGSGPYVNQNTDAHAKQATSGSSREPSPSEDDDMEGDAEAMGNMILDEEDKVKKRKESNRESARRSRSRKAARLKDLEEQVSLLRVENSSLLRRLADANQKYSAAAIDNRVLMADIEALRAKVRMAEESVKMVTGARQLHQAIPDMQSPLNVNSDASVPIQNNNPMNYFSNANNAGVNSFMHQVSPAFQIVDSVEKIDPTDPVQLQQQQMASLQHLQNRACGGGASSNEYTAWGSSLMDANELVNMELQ
The test is described as follows: protein-binding microarray (RPBM); PBS, 2% BSA, 51.3 ng/ul salmon testes DNA, 50 uM zinc acetate, 200 nM TF, 25 C, 1 h; high values mean tight binding. As to conditions: protein: recombinant; tags: N-terminal polyhistidine and DsRed monomer fusion (pET32a); chain copies: 2; label: CyDye5-dUTP incorporated in the synthesized complementary strand; 3' TTTTT single-stranded linker to array surface; dsDNA, one strand shown. Summed up:
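A custom Agilent array was converted to double-stranded form by primer extension with Cy5-dUTP and blocked with 2% BSA. Protein at 200 nM in PBS with 2% BSA, salmon testes DNA and 50 µM zinc acetate was applied for 1 h at 25 °C, followed by washing. The proteins were polyhistidine–DsRed N-terminal fusions of transcription factors, expressed in E. coli BL21-CodonPlus and Ni–NTA-purified. The binding signal is per-feature fluorescence intensity (arbitrary units) from an Axon 4000B scanner.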
Consider “TCTTCTCCCTAGTCCAAGTTGCAACCTTGGTAAACATAAGCGGAGTCACCTAGTGCAG”, for which the binding signal is 3190 fluorescence intensity (a.u.).
In the case of “GAAAACAAACAACTGGTGATGACTGATGACTCAGTTTCCGCGGAGTCACCTAGTGCAG” it was 6160 fluorescence intensity (a.u.); in that of “CTTCCATCCGCCTGCTGCCGCTGGCACGTCGGGACGTAGGCGGAGTCACCTAGTGCAG”, 3370 fluorescence intensity (a.u.).
In the case of “ATAGACCCGCCCAAGTGAAGAGCAACAAGGTGACGTGGCACGGAGTCACCTAGTGCAG” it was 23600 fluorescence intensity (a.u.).
To “GCACTGGGATTTTATGCGTAATACATGTGGAAAATTTTCCCGGAGTCACCTAGTGCAG” belongs 3710 fluorescence intensity (a.u.); to “GTCGTTTGATGATAATGCCCACTCTATTACGTGGCCTGAACGGAGTCACCTAGTGCAG”, 7830 fluorescence intensity (a.u.).
For the sequence “GTTCGTGCGTTTTCTTGGATGAGATTTGGGGTGACGTCCTCGGAGTCACCTAGTGCAG”, the binding signal was 4700 fluorescence intensity (a.u.).
Take “ACGGAGGTAGTATAAGATGTGTCACATCCGCACAATATCTCGGAGTCACCTAGTGCAG”: the binding signal is 4880 fluorescence intensity (a.u.).
To “GTCAGCCCACATCAAACCGTTCGTCTCGGGAAGCCACCGCCGGAGTCACCTAGTGCAG” belongs 20100 fluorescence intensity (a.u.); to “TTTTCCAATTTTCCACCTGTGTCACCAATCAATGGAAGTACGGAGTCACCTAGTGCAG”, 3900 fluorescence intensity (a.u.).
In the case of “CCGGCGAAAGCGGACTCGCTGCCAAGGTGGCGCGCATGGCCGGAGTCACCTAGTGCAG” it was 3460 fluorescence intensity (a.u.); in that of “CCATAAAACCTGTGATTATTTGCCACGCTTCATAATACATCGGAGTCACCTAGTGCAG”, 3240 fluorescence intensity (a.u.).
In the case of “GATGAGGCACGTGCTGACGTGTCTATGTATACAGTAAACTCGGAGTCACCTAGTGCAG” it was 18800 fluorescence intensity (a.u.).
Turning to “CCCCGCGCGACCACGCTTCTCATCTAGTCATGGTCGCGTGCGGAGTCACCTAGTGCAG”, the binding signal is 4580 fluorescence intensity (a.u.).
Take “AGTTACCGCCACCCGCGCGGCAACGGCAGCGGCCGCGGCACGGAGTCACCTAGTGCAG”: the binding signal was 3710 fluorescence intensity (a.u.).
Take “TCTCTCCCTGTGAATTGTGGGTGTGTTTAGTTCGCGAAAACGGAGTCACCTAGTGCAG”: the binding signal is 3280 fluorescence intensity (a.u.).
To “TCCTTTCGTTATCTGTACGGCAGTGACGTCCACGACTCGACGGAGTCACCTAGTGCAG” belongs 4340 fluorescence intensity (a.u.); to “CTCTCCTCCTTTCTTCTCCAAGTCAACAGTTCCTACGCTACGGAGTCACCTAGTGCAG”, 3360 fluorescence intensity (a.u.); to “GGGCCCCACAACCACCCCATAAATAAAGCAACACAACAACCGGAGTCACCTAGTGCAG”, 53000 fluorescence intensity (a.u.).
On to “CCTCGGTTGGGAGGAGGCGGCGGTGGTGGCGCGGAGGTCGCGGAGTCACCTAGTGCAG”, for which the binding signal was 3570 fluorescence intensity (a.u.).
In the case of “AGCCTTGCCCTCCCTGGATACTTCTCCAGCTCAGGTCACCCGGAGTCACCTAGTGCAG”, the binding signal is 4910 fluorescence intensity (a.u.).
“GGGCGGACGAGGCGGCGGCGGCGACGGGGCGGACGAGGCGCGGAGTCACCTAGTGCAG”: the binding signal was 6010 fluorescence intensity (a.u.).
With “CTTCGCCTCTGGAATGAGTCATACCTGTGCCAGTACAAAACGGAGTCACCTAGTGCAG”, the binding signal was 7720 fluorescence intensity (a.u.).
To “GCGTGTGGAATTCATAGCGAAGCCCAACGTGTCACTCCGTCGGAGTCACCTAGTGCAG” belongs 5480 fluorescence intensity (a.u.); to “TACAGGGAATCAAACGCACCTAATGCTTCCCTGCTCCACACGGAGTCACCTAGTGCAG”, 22600 fluorescence intensity (a.u.); to “GGTTTCTGTTATCGGTTTTCCAGTTTCAGTCCTATTGTAACGGAGTCACCTAGTGCAG”, 26800 fluorescence intensity (a.u.).
“AATAATGGGCTGAAAATATGTGACGCGAGGCGAGGGTCCCCGGAGTCACCTAGTGCAG”: the binding signal is 3260 fluorescence intensity (a.u.).
Regarding “ATGGTGGTGAGGATGACGTGTGGGTCCACATGGGCCCACCCGGAGTCACCTAGTGCAG”, the binding signal is 10600 fluorescence intensity (a.u.).
In the case of “GGCGGCGGCGACTACGCCGTCGCCGCGTGGGGCGGCGGTGCGGAGTCACCTAGTGCAG” it was 4000 fluorescence intensity (a.u.); in that of “CCACTCCTTAGCCAAATGGCGTCGCTTCTCCTGTCCGCGTCGGAGTCACCTAGTGCAG”, 18900 fluorescence intensity (a.u.).
On to “GGAATTTTCTCACACGCAATTCAAATCCTTTCAAAATCTCCGGAGTCACCTAGTGCAG”, for which the binding signal was 7160 fluorescence intensity (a.u.).
In the case of “TATGTTCTCGGGCTTCACGTCGCAATGGATAACCCACTCTCGGAGTCACCTAGTGCAG” it was 5750 fluorescence intensity (a.u.); in that of “CCGCTCGCGCCGCGTCTGCCGCCGCGCCTCCACCATCTCGCGGAGTCACCTAGTGCAG”, 3330 fluorescence intensity (a.u.); in that of “AGCGGAGCTATTATGTGTAGTTTTCTCCTTGCGTGGAACCCGGAGTCACCTAGTGCAG”, 4150 fluorescence intensity (a.u.).
For the sequence “CCATCACCCTTCCATCCCGCCACGTTGCGATCCCCTCGGCCGGAGTCACCTAGTGCAG”, the binding signal is 8340 fluorescence intensity (a.u.).
As to “AGTGCCACTTAAGCGCCACATCAACGCCACATGGAAAGAACGGAGTCACCTAGTGCAG”, the binding signal is 4210 fluorescence intensity (a.u.).
As for “CATCTATCATATAACAACAACACAATGACACAACACTGGACGGAGTCACCTAGTGCAG”, the binding signal is 4510 fluorescence intensity (a.u.).
“ATTTAGTGACGGATCGATGACGTACTGTGTCTGGCTGCTTCGGAGTCACCTAGTGCAG”: the binding signal is 9710 fluorescence intensity (a.u.).
With “ACCTTTCACGCCGCCGCACTACCTCTCCACCCTCTCGCGGCGGAGTCACCTAGTGCAG”, the binding signal was 3160 fluorescence intensity (a.u.).
To “GTGGTCATTAGTGCCAGCAAGCATCCACATCATTAGAACACGGAGTCACCTAGTGCAG” belongs 5760 fluorescence intensity (a.u.); to “CATCCCCATGTGATATGGTGACAATGTTTTCAGTATTCTGCGGAGTCACCTAGTGCAG”, 3840 fluorescence intensity (a.u.).
To “AAAGCTACCGAATCAAATGACTAAGATTTGTCGTGCAACCCGGAGTCACCTAGTGCAG” belongs 3910 fluorescence intensity (a.u.).
